No constants are given. Whether binding was seen depends on the method and setting. In cells and extracts the contact can be indirect. Some binding calls cover weakened binding; strength is not graded here.
Molecular target: His-tagged wild-type (WT) CRABP1 (Mus musculus) (UniProt P62965)
Test: pull-down; purified His-CRABP1 (WT or mutant, 5 uM) held on Ni-NTA resin as bait; 250 ug pre-cleared lysate of HEK293T cells expressing GFP-CaMKII (DMSO or ionomycin 10 uM, 10 min) as prey; 50 mM Tris pH 8.0, 150 mM NaCl, 0.2% NP-40, 20% glycerol, 200 mM imidazole, overnight at 4°C; Western blot with anti-GFP and anti-His; densitometry gives the CCI (n = 5); only the target purified

Protein sequences, listed by entry. Tags and fused reporters are not part of them. Residues count along the entry.
UniProt P62965, residues 2-137: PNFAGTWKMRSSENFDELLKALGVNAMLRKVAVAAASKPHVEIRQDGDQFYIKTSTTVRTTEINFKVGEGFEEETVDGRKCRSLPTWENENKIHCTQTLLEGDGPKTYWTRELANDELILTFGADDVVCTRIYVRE
UniProt P08413: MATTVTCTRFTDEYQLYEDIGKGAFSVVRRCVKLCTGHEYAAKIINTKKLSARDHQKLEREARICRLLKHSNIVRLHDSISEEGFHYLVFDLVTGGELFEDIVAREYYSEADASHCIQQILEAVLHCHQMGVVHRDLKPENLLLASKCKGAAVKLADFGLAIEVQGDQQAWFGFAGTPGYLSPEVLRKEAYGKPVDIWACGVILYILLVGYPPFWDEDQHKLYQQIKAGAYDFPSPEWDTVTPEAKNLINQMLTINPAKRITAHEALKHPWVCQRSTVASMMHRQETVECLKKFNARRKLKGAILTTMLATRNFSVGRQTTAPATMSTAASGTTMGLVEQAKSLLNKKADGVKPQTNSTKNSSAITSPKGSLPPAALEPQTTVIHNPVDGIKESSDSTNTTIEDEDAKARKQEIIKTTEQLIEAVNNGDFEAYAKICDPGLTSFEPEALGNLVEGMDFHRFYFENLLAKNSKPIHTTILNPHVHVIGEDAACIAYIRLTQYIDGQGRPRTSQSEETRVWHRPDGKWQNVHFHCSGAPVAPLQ

GFP-CaMKII beta, active (pCaMKII T287, from ionomycin-stimulated HEK293T cells) (from UniProt P08413 1-542) (enzyme)
binding: binds

From article PMC10562560, “Molecular basis for cellular retinoic acid-binding protein 1 in modulating CaMKII activation” (Frontiers in Molecular Biosciences, 2023)
